From article PMC6111810
Results are given in words; binding and its absence hold for the method and conditions named. In cells and extracts the contact can be indirect. Binding calls can cover weak binding; strength is not graded here.

Amino acid sequences for entries named in this document (tags omitted). A change or cut given only in a name is not applied to a line headed by its entry.
UniProt Q99755: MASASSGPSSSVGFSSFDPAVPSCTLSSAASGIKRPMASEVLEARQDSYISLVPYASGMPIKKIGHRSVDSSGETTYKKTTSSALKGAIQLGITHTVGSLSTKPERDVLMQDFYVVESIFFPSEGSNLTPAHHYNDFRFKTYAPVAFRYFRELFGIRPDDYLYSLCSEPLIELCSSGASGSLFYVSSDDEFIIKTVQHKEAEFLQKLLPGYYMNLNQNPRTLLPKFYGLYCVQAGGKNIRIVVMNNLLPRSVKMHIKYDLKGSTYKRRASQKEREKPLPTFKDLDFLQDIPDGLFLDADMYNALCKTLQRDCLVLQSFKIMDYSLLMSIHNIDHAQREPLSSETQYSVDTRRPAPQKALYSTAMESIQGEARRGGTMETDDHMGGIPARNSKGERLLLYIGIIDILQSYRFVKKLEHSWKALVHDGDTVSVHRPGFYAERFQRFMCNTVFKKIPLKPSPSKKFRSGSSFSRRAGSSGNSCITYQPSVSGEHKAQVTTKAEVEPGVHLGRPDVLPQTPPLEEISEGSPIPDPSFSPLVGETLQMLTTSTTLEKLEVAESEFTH
UniProt P46934: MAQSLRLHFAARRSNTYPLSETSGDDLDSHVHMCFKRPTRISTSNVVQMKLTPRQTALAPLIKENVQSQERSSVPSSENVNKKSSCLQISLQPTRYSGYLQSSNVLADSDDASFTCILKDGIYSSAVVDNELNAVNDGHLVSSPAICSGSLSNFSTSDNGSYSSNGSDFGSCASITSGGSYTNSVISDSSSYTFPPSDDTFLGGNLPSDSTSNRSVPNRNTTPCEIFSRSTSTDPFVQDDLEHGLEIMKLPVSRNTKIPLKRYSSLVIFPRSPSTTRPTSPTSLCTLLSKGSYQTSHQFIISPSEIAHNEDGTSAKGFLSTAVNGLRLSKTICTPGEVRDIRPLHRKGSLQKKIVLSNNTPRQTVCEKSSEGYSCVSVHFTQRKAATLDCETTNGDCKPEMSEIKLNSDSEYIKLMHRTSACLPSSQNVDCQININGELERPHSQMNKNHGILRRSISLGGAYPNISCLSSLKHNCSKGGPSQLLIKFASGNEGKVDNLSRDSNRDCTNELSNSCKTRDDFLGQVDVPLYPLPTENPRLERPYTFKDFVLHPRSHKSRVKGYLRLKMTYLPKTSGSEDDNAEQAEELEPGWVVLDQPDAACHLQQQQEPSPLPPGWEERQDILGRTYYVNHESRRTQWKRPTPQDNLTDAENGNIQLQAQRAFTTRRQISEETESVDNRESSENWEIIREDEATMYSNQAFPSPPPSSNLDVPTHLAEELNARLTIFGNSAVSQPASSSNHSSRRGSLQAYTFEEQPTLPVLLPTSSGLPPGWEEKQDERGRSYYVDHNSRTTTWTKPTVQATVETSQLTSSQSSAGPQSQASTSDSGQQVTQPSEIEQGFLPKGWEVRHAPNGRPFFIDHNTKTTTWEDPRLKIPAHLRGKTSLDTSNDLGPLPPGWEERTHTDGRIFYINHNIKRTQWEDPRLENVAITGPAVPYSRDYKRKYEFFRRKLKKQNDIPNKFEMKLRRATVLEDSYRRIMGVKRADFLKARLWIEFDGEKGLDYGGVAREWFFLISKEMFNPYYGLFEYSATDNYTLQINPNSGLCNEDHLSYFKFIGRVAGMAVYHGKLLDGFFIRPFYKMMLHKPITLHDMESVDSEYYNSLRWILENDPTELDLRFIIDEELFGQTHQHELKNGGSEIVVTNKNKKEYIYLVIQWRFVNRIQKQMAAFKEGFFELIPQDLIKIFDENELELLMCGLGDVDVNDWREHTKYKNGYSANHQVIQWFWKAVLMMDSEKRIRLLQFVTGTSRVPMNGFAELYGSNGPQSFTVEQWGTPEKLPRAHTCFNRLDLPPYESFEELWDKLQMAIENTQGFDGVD

Legend:
[1] = molecular target: endogenous PIP5Kα (human (endogenous in HEK293)) (UniProt Q99755); test: co-IP; endogenous proteins, intact HEK293 cells; lysate (~1.5 mg) with 5 μg anti‐PIP5Kα or anti‐NEDD4 antibody 4 hours at 4°C, protein G agarose 2 hours; control IgG
[2] = molecular target: endogenous NEDD4 (human (endogenous in HEK293)) (UniProt P46934); test: as above

Substance	binding [1]	binding [2]
endogenous NEDD4 (from UniProt P46934-4) (enzyme)	binds	
endogenous PIP5Kα (from UniProt Q99755 1-562)		binds
